This experiment deals with full length β-catenin (mouse) (UniProt Q02248). In words: affinity co-purification + anion exchange + SEC; co-expression of GFP-E-cadherin, untagged β-catenin and untagged αE-catenin in FreeStyle 293-F; anti-GFP beads, TEV, MonoQ, Superdex 200.

Amino acid sequences for entries named in this document (tags omitted).
UniProt Q02248: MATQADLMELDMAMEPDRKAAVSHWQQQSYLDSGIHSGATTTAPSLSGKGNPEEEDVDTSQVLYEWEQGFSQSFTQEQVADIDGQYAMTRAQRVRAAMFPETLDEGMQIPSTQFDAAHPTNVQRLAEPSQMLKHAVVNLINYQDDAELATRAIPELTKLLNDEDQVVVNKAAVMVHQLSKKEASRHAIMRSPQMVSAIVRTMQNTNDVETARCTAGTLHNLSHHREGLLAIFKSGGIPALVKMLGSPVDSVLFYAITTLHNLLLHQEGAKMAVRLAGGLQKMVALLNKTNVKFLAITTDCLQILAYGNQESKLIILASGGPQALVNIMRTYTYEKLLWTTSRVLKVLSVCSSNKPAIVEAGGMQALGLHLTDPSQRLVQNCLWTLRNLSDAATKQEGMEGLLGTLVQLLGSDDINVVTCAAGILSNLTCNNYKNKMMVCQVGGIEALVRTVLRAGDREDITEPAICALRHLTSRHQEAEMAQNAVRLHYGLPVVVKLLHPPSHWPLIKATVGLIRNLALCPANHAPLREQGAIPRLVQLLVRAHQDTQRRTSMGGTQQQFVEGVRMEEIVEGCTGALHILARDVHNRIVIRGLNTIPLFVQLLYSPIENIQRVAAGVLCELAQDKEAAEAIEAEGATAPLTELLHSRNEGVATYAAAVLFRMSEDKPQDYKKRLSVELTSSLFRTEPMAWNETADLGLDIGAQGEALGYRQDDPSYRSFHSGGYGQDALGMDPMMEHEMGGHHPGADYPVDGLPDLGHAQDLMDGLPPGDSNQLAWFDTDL
UniProt P26231: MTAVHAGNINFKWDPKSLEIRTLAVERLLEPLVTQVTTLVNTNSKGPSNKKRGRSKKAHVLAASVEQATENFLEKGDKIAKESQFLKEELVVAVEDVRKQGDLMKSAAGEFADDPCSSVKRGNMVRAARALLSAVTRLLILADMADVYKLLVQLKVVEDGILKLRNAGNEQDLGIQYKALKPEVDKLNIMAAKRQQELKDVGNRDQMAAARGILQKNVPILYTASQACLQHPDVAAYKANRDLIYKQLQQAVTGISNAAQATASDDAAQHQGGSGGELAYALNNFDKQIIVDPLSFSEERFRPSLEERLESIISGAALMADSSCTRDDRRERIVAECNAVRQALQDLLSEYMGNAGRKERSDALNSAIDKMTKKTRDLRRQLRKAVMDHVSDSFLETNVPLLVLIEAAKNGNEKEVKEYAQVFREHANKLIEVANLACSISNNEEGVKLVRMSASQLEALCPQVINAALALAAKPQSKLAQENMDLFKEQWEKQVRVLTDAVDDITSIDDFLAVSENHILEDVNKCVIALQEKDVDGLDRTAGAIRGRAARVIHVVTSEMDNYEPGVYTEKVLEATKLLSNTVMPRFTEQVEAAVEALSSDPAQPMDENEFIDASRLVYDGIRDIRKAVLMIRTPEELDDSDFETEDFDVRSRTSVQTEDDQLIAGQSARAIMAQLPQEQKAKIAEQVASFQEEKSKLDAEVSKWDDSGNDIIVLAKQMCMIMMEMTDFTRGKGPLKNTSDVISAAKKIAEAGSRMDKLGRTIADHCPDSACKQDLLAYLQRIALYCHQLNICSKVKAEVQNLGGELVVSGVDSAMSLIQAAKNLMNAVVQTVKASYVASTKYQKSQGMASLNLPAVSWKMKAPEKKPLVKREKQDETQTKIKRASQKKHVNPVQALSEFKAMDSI

These are yes or no findings as the source states them, for the method shown. Some entries that bind do so weakly or less than the wild type.

We go through 1 substance from publication doi:10.1101/2024.10.08.617332 (bioRxiv, 2024).

For the substance “full-length αE-catenin (from UniProt P26231 1-906)”, the binding result is recorded as “binds”.
